Experimental data published in PMC4703060.

By UniProt entry, the sequences of proteins in these tests, tags left out. Where a name states a change or a piece, a line headed by the entry shows the natural chain unless it says otherwise. Residues count along the entry.
UniProt O14641: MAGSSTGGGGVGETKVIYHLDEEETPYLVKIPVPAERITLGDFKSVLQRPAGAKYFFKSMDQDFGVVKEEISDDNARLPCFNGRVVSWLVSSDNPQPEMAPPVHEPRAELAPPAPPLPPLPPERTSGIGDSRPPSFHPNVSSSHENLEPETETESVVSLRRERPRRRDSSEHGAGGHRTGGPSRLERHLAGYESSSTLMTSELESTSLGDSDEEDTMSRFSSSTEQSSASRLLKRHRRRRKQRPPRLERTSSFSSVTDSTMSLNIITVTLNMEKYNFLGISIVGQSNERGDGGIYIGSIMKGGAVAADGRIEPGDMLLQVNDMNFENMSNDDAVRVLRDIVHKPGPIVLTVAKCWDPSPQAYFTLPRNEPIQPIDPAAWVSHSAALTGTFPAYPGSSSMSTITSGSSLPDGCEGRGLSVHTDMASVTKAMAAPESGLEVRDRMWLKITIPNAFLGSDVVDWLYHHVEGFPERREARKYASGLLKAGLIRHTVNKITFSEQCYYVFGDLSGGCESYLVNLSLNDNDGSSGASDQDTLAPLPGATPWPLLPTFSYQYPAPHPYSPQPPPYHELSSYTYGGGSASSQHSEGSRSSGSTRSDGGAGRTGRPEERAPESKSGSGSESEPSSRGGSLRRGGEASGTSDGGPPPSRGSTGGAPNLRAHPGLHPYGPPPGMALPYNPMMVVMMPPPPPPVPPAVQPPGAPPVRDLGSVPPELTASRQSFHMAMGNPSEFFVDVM
GST-WW1 of human WWP2 (301-333) (O00308, residues 301-333): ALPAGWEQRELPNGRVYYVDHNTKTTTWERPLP
GST-WW2 of human WWP2 (331-363) (O00308, residues 331-363): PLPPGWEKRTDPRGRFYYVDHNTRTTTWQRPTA
GST-WW3 of human WWP2 (406-437) (O00308, residues 406-437): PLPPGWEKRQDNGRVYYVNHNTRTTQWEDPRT
GST-WW4 of human WWP2 (445-477) (O00308, residues 445-477): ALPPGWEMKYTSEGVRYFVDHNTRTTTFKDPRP

Legend:
[1] = target: human Flag-Dvl2 (wild type) (human) (UniProt O14641); test: co-IP; HEK293ET cells co-transfected with Flag-Dvl2 (wt or mutant) and HA-tagged NEDD4 family ligase; native lysis buffer (20 mM Tris-HCl pH 7.4, 10% glycerol, 200 mM NaCl, 0.2% Triton X-100); Flag-M2 affinity gel for α-Flag IPs, 4°C; Western blot
[2] = target: GST-WW1 of human WWP2 (301-333) (human) (UniProt O00308); test: pull-down; GST-tagged individual WW domains of WWP2 pre-bound to glutathione-sepharose, incubated with 500 µl lysate of transfected HEK293T cells for 1 h at 4°C; washed three times in lysis buffer; Western blot; only the target purified
[3] = target: GST-WW2 of human WWP2 (331-363) (human) (UniProt O00308); test: as above
[4] = target: GST-WW3 of human WWP2 (406-437) (human) (UniProt O00308); test: as above
[5] = target: GST-WW4 of human WWP2 (445-477) (human) (UniProt O00308); test: as above

Substance	binding [1]	binding [2]	binding [3]	binding [4]	binding [5]
HA-NEDD4 (from UniProt P46934-4) (enzyme)	binds weakly				
Flag-Dvl2-PYm (PPxY mutant of Dvl2) (from UniProt O14641)		no binding	no binding	no binding	no binding

Results are given in words; binding and its absence hold for the method and conditions named. Binding seen in cells or lysates may run through a third protein. For some assays here: Binding calls can cover weak binding; strength is not graded here.
